Results published in patent US9896423B2, “Deuterium substituted 1-[2-(2,4-dimethyl-phenylsulfanyl)-phenyl]piperazine compound or derivatives thereof, and pharmaceutical composition and use thereof” (Jiangsu Jibeier Pharmaceutical Co. Ltd., priority 2014, dated 2018).
Values joined by “and” are separate entries in the source; they are usually repeats but may differ in a detail not shown here. Equal values may be shown once. Where a name gives a salt, the structure may show the parent alone. Further values from the same series stand in other lists.

Experiment: Pharmacokinetic test in rats, gavage administration
Type: in vivo, SD rats
Settings: 20 mg/kg oral, 0.5 h, individual rats 1-6
Experimental: The preferred compound of the present disclosure was assessed in rats for its pharmacokinetic profile.
SD rats, male and female, weighing 150 to 250 g
Mobile phase: 10 mM ammonium formate aqueous solution:methanol=15:85
The ionization source was electrospray ionization source. The detection mode was positive mode. Multiple reaction monitoring (MRM) was used as the scanning mode. The ion reaction for the quantitative analysis was the following: m/z was 305.2\150.0 for XX, and 256.1\167.1 for diphenhydramine (the internal standard).
XX or YY was orally administered with single dose of 20 mg/kg to six SD rats, one half of which were male and the other half was female. XX or YY was dissolved in 10% hydroxypropyl-β-cyclodextrin. […]
After the blood collection, the tubes were immediately gently turned upside down at least five times to ensure sufficient mixing, and placed on ice. Heparin was added for anticoagulation. The samples were centrifuged at 8000 rpm for 5 min to separate serum from erythrocyte. The serum was transferred with a pipettor to 2 mL polypropylene (PP) tubes, which were marked with the name of the compound and the time points, and stored in a refrigerator at −40° C. before LC-MS analysis. Samples with high concentrations were diluted with rat blank plasma.
2.5 μL of Meth-H2O and 5 μL of the internal standard solution (20 ng/mL, IS) were added to 50 μL of the plasma. […]

Compound	Concentrations in Plasma of Rats after Oral Administration
[2H]C([2H])([2H])c1ccc(Sc2ccccc2N2CCNCC2)c(C([2H])([2H])[2H])c1 [XX, 1-{2-[2,4-bis(trideuteriomethyl)phenylsulfanyl]phenyl}piperazine hydrobromic acid salt]	45.9 ng/mL and 53.2 ng/mL and 41.6 ng/mL and 65.2 ng/mL and 88.9 ng/mL and 82.7 ng/mL
Cc1ccc(Sc2ccccc2N2CCNCC2)c(C)c1 [YY, 1-[2-(2,4-dimethyl-phenylsulfanyl)-phenyl]piperazine]	57.2 ng/mL and 45.8 ng/mL
